{
  "source": "paper PMC4006739",
  "binders": {"B1": {"name": "LET-23 EGFR (receptor, UniProt P24348 21-1323)", "chain": "FGNSNAQLWKRCVSPQDCLCSGTTNGISRYGTGNILEDLETMYRGCRRVYGNLEITWIEANEIKKWRESTNSTVDPKNEDSPLKSINFFDNLEEIRGSLIIYRANIQKISFPRLRVIYGDEVFHDNALYIHKNDKVHEVVMRELRVIRNGSVTIQDNPKMCYIGDKIDWKELLYDPDVQKVETTNSHQHCYQNGKSMAKCHESCNDKCWGSGDNDCQRVYRSVCPKSCSQCFYSNSTSSYECCDSACLGGCTGHGPKNCIACSKYELDGICIETCPSRKIFNHKTGRLVFNPDGRYQNGNHCVKECPPELLIENDVCVRHCSDGHHYDATKDVRECEKCRSSSCPKICTVDGHLTNETLKNLEGCEQIDGHLIIEHAFTYEQLKVLETVKIVSEYITIVQQNFYDLKFLKNLQIIEGRKLHNVRWALAIYQCDDLEELSLNSLKLIKTGAVLIMKNHRLCYVSKIDWSSIITSKGKDNKPSLAIAENRDSKLCETEQRVCDKNCNKRGCWGKEPEDCLECKTWKSVGTCVEKCDTKGFLRNQTSMKCERCSPECETCNGLGELDCLTCRHKTLYNSDFGNRMECVHDCPVSHFPTQKNVCEKCHPTCYDNGCTGPDSNLGYGGCKQCKYAVKYENDTIFCLQSSGMNNVCVENDLPNYYISTYDTEGVIETHCEKCSISCKTCSSAGRNVVQNKCVCKHVEYQPNPSERICMDQCPVNSFMVPDTNNTVCKKCHHECDQNYHCANGQSTGCQKCKNFTVFKGDIAQCVSECPKNLPFSNPANGECLDYDIASRQRKTRMVIIGSVLFGFAVMFLFILLVYWRCQRIGKKLKIAEMVDMPELTPIDASVRPNMSRICLIPSSELQTKLDKKLGAGAFGTVFAGIYYPKRAKNVKIPVAIKVFQTDQSQTDEMLEEATNMFRLRHDNLLKIIGFCMHDDGLKIVTIYRPLGNLQNFLKLHKENLGAREQVLYCYQIASGMQYLEKQRVVHRDLATRNVLVKKFNHVEITDFGLSKILKHDADSITIKSGKVAIKWLAIEIFSKHCYTHASDVWAFGVTCWEIITFGQSPYQGMSTDSIHNFLKDGNRLSQPPNCSQDLYQELLRCWMADPKSRPGFEILYERFKEFCKVPQLFLENSNKISESDLSAEERFQTERIREMFDGNIDPQMYFDQGSLPSMPSSPTSMATFTIPHGDLMNRMQSVNSSRYKTEPFDYGSTAQEDNSYLIPKTKEVQQSAVLYTAVTNEDGQTELSPSNGDYYNQPNTPSSSSGYYNEPHLKTKKPETSEEAEAVQYENEEVSQKETCL"}},
  "experiment_in_all_cases": "pull-down; purified GST::ERM-1 fusion proteins on glutathione-sepharose beads incubated with 500 µg total protein worm extracts (wild type, lin-7(e1413) or let-23(sy1)); bound LET-23 detected on anti-LET-23 Western blots; only the target purified",
  "key": {"[1]": {"molecular_target": "GST::ERM-1 FERM domain (construct not named for this experiment) (C. elegans)"}, "[2]": {"molecular_target": "GST::ERM-1_(1–100) (C. elegans)"}, "[3]": {"molecular_target": "GST::ERM-1_(1–167) (C. elegans)"}, "[4]": {"molecular_target": "GST::ERM-1_(1–240) (C. elegans)"}, "[5]": {"molecular_target": "GST::ERM-1_(1–311) (C. elegans)"}, "[6]": {"molecular_target": "GST::ERM-1_(312–564) (C. elegans)"}},
  "note": "No constants are given. Whether binding was seen depends on the method and setting. Binding seen in cells or lysates may run through a third protein. For part of these data: A result given as binding can be weak or reduced; the word gives no strength.",
  "data": [
    {"binder": "B1", "values": [
      {"measurement": "binding", "setting": "[1]", "value": "binds"},
      {"measurement": "binding", "setting": "[2]", "value": "no binding"},
      {"measurement": "binding", "setting": "[3]", "value": "no binding"},
      {"measurement": "binding", "setting": "[4]", "value": "binds"},
      {"measurement": "binding", "setting": "[5]", "value": "binds"},
      {"measurement": "binding", "setting": "[6]", "value": "no binding"}
    ]}
  ]
}
